These results are taken from patent publication US20250332276A1 (priority 2022, published 2025).

The nature of this series: general procedure: solution-phase peptide synthesis; HATU/diisopropylethylamine; PyBOP/diisopropylethylamine. Conditions: trifluoroacetate salt.

For the substance “Methyl 5-((2,2-dimethyl-4,7,10,13,16-pentaoxo-3-oxa-5,8,11,14,17-pentaazanonadecan-19-yl)carbamoyl)-2-(2-(4-fluorophenyl)butanamido)-4-methylthiophene-3-carboxylate”, the step yield (coupling step) came out at 50% yield.

For “Methyl 5-((14-amino-4,7,10,13-tetraoxo-3,6,9,12-tetraazatetradecyl)carbamoyl)-2-(2-(4-fluorophenyl)butanamido)-4-methylthiophene-3-carboxylate”, the step yield (late stage modification step) is 93% yield.

As to “Methyl 5-(((5S,8S,11S,14S)-14-amino-5,8,11-triisopropyl-15-methyl-4,7,10,13-tetraoxo-3,6,9,12-tetraazahexadecyl)carbamoyl)-2-(2-(4-fluorophenyl)butanamido)-4-methylthiophene-3-carboxylate”, the step yield (coupling step) is given as 10% yield.
